This is one part of the list.
What was measured:
Test in all cases: log2 fold change, soluble protein after heating vs DMSO (PISA); higher = thermal stabilisation; K562 lysate, 10 uM; active = over 0.2 and 3.5 SD of the protein, either way, in both replicates (recomputed)
[1] = compound: CCCS(=O)(=O)Nc1ccc(F)c(C(=O)c2c[nH]c3ncc(-c4ccc(Cl)cc4)cc23)c1F [vemurafenib]
Summary of the method: (§1)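 Pellets of K562 cells were dounce-homogenised in PBS pH 7.4 with 1 mM MgCl2, and the crude extract was held at 1 mg/mL protein for a 30 min treatment with 10 μM compound. Aliquots were heated for 3 min over 48°C-58°C and pooled before NP-40 was added to 0.5% at 4°C. The supernatant from 21,000xg for 90 min was quantified by TMTpro 16plex LC-MS/MS with channel sums equalised. Values are reported from duplicates as log-two fold change in thermal stability relative to solvent controls.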

Amino acid sequences for entries named in this document (tags omitted). A change or cut given only in a name is not applied to a line headed by its entry.
UniProt Q9H7M9, whole entry, looked up: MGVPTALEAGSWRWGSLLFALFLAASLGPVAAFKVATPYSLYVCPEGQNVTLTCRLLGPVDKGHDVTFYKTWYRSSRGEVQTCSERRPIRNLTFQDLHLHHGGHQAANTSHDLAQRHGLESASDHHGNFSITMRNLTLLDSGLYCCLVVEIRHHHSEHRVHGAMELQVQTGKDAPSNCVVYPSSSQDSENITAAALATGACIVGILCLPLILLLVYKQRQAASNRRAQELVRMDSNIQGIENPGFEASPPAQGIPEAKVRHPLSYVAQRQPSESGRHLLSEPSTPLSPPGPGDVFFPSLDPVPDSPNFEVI
UniProt Q9BTA9: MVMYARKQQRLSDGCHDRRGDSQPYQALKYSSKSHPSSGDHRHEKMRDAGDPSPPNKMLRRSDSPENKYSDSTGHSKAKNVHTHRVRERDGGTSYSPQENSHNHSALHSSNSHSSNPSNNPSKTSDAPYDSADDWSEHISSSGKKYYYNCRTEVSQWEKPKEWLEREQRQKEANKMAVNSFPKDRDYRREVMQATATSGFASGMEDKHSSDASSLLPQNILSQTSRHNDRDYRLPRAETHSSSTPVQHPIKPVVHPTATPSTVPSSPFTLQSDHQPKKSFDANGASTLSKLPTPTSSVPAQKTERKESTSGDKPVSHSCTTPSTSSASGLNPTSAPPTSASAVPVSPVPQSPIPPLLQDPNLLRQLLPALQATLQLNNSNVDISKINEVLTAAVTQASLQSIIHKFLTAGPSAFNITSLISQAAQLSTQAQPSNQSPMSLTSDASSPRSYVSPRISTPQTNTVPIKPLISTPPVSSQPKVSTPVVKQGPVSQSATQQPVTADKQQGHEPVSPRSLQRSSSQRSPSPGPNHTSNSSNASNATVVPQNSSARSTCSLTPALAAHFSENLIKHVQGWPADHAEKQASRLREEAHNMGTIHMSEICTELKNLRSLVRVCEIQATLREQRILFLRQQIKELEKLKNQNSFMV
UniProt Q7Z5U6: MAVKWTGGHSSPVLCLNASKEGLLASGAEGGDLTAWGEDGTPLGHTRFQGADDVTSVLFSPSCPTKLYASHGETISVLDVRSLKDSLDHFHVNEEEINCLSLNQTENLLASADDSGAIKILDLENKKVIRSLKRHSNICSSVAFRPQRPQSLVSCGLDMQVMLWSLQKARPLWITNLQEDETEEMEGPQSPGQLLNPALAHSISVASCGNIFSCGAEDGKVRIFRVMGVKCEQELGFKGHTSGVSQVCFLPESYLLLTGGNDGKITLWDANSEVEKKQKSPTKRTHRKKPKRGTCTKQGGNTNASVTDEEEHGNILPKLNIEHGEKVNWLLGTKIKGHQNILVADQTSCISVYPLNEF
UniProt Q96AJ9: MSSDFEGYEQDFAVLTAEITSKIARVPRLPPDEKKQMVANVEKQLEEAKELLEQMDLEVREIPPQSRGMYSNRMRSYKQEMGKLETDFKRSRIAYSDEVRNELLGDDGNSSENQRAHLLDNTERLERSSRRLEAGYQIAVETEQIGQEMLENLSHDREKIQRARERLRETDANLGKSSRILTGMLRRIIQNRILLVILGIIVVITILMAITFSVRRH
UniProt Q96EX3: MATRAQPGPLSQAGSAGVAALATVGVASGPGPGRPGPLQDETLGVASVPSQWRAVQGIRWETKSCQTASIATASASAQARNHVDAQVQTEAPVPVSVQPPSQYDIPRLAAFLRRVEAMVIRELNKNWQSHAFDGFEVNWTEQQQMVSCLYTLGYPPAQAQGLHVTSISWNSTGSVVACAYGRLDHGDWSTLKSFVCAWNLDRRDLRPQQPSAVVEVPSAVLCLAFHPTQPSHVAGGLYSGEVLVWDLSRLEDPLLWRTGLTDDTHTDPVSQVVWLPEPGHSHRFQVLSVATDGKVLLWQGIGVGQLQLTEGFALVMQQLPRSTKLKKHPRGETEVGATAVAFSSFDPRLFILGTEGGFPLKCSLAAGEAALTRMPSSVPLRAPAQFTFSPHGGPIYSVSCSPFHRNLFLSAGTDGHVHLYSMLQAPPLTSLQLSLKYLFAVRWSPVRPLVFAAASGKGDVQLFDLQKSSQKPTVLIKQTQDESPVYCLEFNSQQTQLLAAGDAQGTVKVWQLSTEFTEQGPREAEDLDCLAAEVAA
UniProt Q8TBY9: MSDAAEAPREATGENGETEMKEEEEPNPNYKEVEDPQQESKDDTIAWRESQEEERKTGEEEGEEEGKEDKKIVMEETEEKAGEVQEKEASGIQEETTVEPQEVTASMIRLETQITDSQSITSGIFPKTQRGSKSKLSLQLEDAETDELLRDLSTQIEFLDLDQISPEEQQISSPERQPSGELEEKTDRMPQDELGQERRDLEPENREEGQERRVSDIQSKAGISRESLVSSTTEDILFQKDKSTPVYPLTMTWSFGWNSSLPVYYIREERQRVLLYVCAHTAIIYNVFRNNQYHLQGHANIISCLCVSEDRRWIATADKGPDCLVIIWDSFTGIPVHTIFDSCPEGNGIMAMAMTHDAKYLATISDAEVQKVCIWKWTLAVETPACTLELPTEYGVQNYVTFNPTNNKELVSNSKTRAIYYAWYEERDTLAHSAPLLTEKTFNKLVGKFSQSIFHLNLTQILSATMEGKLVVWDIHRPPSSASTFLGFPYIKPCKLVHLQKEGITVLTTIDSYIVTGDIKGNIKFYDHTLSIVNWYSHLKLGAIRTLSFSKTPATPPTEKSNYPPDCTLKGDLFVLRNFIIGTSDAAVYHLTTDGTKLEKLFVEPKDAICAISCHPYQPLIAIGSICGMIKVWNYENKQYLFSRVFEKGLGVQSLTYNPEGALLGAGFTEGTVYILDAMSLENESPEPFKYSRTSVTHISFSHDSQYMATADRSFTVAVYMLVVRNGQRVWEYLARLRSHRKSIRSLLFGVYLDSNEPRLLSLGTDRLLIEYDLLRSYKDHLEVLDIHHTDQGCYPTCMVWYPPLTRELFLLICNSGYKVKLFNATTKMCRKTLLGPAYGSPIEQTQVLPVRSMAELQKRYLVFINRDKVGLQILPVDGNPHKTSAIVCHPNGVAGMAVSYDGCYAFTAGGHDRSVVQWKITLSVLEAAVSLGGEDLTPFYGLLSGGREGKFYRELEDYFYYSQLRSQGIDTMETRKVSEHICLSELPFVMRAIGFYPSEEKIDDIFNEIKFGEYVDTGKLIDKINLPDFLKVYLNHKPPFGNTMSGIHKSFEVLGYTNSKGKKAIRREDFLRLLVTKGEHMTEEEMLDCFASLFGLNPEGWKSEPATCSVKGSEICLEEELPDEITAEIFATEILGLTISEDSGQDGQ
UniProt Q96HA8: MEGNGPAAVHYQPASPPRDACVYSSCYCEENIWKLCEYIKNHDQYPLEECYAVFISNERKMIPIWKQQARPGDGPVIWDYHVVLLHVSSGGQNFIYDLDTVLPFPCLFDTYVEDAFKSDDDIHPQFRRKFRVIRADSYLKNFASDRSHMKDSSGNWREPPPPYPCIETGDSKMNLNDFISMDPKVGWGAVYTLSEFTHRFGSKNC
UniProt Q5T750: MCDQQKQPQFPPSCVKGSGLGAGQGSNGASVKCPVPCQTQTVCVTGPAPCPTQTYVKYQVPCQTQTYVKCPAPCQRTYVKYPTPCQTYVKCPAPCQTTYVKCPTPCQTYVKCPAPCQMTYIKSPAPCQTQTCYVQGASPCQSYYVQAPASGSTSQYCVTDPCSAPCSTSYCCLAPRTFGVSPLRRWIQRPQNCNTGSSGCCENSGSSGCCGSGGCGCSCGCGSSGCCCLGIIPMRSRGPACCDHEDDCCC
UniProt Q9H977: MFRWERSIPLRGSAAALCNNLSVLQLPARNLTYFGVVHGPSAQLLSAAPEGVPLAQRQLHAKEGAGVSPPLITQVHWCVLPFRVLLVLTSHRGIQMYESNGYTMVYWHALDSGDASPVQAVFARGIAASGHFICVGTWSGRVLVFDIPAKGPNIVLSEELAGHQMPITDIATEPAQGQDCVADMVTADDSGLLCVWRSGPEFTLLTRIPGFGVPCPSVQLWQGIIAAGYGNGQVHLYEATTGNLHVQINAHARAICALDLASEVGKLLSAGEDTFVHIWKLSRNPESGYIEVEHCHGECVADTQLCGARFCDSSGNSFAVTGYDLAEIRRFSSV
UniProt Q96P53: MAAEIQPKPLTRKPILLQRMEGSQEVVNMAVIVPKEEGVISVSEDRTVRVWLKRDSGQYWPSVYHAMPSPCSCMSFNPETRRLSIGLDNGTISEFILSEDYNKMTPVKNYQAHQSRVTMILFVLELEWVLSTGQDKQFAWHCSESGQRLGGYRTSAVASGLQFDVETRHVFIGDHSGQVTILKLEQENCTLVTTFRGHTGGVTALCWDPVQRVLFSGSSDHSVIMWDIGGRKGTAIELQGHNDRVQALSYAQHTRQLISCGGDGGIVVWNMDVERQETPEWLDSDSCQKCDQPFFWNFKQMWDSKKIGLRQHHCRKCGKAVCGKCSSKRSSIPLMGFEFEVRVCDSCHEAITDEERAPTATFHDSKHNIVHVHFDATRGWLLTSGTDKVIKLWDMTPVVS
UniProt Q9UEU0: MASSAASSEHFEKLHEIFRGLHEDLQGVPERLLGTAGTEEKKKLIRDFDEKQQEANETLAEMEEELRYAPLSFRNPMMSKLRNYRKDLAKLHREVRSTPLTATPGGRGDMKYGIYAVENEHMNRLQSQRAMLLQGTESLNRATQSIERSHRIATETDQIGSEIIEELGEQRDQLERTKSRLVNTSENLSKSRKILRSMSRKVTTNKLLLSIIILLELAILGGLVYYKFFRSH
UniProt Q9NP79: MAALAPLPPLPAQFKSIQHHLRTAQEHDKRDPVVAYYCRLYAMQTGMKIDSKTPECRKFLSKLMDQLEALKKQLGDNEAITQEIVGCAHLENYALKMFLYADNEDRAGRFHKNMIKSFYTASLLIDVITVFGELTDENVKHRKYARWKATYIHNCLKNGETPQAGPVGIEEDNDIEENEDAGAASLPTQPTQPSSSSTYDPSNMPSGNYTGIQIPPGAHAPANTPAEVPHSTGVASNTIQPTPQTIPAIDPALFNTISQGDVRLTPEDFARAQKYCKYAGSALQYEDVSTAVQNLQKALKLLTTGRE
UniProt Q9HD64: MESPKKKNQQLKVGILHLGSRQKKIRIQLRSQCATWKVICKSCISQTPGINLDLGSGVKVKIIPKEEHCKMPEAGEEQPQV
UniProt Q9BRX9: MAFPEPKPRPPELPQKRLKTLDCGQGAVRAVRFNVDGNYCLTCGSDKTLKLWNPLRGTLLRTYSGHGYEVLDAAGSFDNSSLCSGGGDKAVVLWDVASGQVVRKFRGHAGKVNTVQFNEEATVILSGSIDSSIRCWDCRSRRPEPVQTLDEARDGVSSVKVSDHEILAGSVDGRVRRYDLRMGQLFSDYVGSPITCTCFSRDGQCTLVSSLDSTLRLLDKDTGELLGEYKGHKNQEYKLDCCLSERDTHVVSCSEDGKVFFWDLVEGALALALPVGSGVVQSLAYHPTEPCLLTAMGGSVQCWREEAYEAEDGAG
UniProt Q9NZC7: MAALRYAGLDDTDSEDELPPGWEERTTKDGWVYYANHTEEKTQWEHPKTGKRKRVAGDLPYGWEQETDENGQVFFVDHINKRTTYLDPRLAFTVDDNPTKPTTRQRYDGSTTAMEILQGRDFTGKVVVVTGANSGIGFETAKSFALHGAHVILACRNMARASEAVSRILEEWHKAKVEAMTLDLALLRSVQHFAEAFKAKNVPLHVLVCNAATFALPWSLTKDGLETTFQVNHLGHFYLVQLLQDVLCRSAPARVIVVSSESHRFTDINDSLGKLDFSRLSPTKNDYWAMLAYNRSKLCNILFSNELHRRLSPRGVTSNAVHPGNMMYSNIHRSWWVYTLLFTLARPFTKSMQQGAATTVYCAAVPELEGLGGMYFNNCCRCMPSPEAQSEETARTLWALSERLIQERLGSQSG
UniProt P17861: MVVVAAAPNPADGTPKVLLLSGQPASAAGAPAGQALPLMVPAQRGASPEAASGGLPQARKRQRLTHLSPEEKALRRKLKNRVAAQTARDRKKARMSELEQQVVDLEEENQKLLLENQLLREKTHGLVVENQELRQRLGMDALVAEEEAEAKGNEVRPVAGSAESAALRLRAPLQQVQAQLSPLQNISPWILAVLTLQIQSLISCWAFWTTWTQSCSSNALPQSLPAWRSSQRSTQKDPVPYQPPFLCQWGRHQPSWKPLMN

[2] = compound: CCCS(=O)(=O)Nc1ccc(F)c(C(=O)c2c[nH]c3ncc(Cl)cc23)c1F
Summary of the method: as §1

[3] = compound: CCN(CCCOc1ccc2c(Nc3cc(CC(=O)Nc4cccc(F)c4)[nH]n3)ncnc2c1)CCOP(=O)(O)O [barasertib]
Summary of the method: as §1

[4] = compound: CC[C@@H]1C(=O)N(C)c2cnc(Nc3ccc(C(=O)NC4CCN(C)CC4)cc3OC)nc2N1C1CCCC1
Summary of the method: as §1

[5] = compound: CC[C@@H]1C(=O)N(C)c2cnc(Nc3ccc(C(=O)N[C@H]4CC[C@H](N5CCN(CC6CC6)CC5)CC4)cc3OC)nc2N1C(C)C [volasertib]
Summary of the method: as §1

[6] = compound: CCn1c(C(=O)N(C2CC2)C2CC2)cc2c3c(ncn3C)c(Nc3cc(C)n(C)n3)nc21
Summary of the method: as §1

[7] = compound: CCn1cc(-c2ccnc3[nH]c(-c4cccc(CN(C)C)c4)cc23)c(-c2ccc(NC(=O)N(C)C)cc2)n1
Summary of the method: as §1

[8] = compound: CN1CCC(CNc2ccc3ncc(-c4cccc(OC(F)(F)F)c4)n3n2)CC1
Summary of the method: as §1

[9] = compound: CN1CCN(CCOc2cc(OC3CCOCC3)c3c(Nc4c(Cl)ccc5c4OCO5)ncnc3c2)CC1 [saracatinib]
Summary of the method: as §1

[10] = compound: CN1CCN(c2nc(C3=C(c4c[nH]c5ccccc45)C(=O)NC3=O)c3ccccc3n2)CC1 [sotrastaurin]
Summary of the method: as §1

[11] = compound: CN1CC[C@H](c2c(O)cc(O)c3c(=O)cc(-c4ccccc4Cl)oc23)[C@H](O)C1 [alvocidib]
Summary of the method: as §1

[12] = compound: CN1CCc2c(c3ccccc3n2Cc2ccc(C(=O)NO)cc2)C1 [Tubastatin A]
Summary of the method: as §1

[13] = compound: CNC(=O)C1=CC=CC=C1NC2=NC(=NC=C2Cl)NC3=C(C=C(C=C3)N4CCOCC4)OC
Summary of the method: as §1

[14] = compound: CNC(=O)c1ccc(Nc2ncc(C(F)(F)F)c(NCc3nccnc3N(C)S(C)(=O)=O)n2)cc1 [defactinib]
Summary of the method: as §1

[15] = compound: CNc1nc(-c2ccc3c(N)n[nH]c3c2)cc(N2C[C@@H](C(=O)NC3CCCCC3)CC[C@H]2C)n1
Summary of the method: as §1

[16] = compound: COC(=O)N[C@@H](C)CNc1nccc(-c2cn(C(C)C)nc2-c2cc(Cl)cc(NS(C)(=O)=O)c2F)n1 [encorafenib]
Summary of the method: as §1

[17] = compound: COC(=O)[C@H](CCSC)NC(=O)C1=C(C=C(C=C1)NC[C@H](CS)N)C2=CC=CC=C2
Summary of the method: as §1

[18] = compound: COc1cc2nc(-c3cc(F)ccc3O)nc(N[C@@H]3CNC[C@H]3C(C)(C)O)c2cc1OC
Summary of the method: as §1

[19] = compound: COc1cc(Nc2ncc3c(n2)-c2ccc(Cl)cc2C(c2c(F)cccc2OC)=NC3)ccc1C(=O)O [alisertib]
Summary of the method: as §1

[20] = compound: COc1cc2ncnc(Nc3ccc(F)c(Cl)c3)c2cc1OCCCN1CCOCC1 [gefitinib]
Summary of the method: as §1

Measured: log2 fold change

VSIR (UniProt Q9H7M9)
inactive: [1] 0.032 | [2] -0.021 | [3] -0.035 | [4] 0.129 | [5] 0.061 | [6] -0.01 | [7] -0.011 | [8] 0.013 | [9] 0.053 | [10] 0.053 | [11] 0.032 | [12] -0.159 | [13] -0.042 | [14] 0.109 | [15] -0.019 | [16] -0.002 | [17] -0.02 | [18] 0.007

WAC isoform 5 (UniProt Q9BTA9)
inactive: [6] 0.047 | [9] -0.078 | [12] -0.119 | [13] -0.359 | [15] -0.117

WDR53 (UniProt Q7Z5U6)
inactive: [1] 0.127 | [3] -0.007 | [4] 0.013 | [6] 0.012 | [7] 0.076 | [8] -0.057 | [9] -0.012 | [10] 0.119 | [11] -0.024 | [12] 0.062 | [13] 0.065 | [14] 0.115 | [15] 0.226 | [16] 0.011 | [17] -0.044 | [19] 0.111 | [20] -0.232

VPS29 (UniProt Q9UBQ0)
inactive: [1] 0.012 | [2] 0.069 | [5] 0.057 | [6] 0.004 | [9] -0.034 | [10] -0.008 | [12] 0.036 | [13] -0.027 | [14] 0.065 | [15] 0.138 | [18] -0.093

VTI1A (UniProt Q96AJ9)
inactive: [1] 0.01 | [2] 0.032 | [3] -0.003 | [4] -0.03 | [5] -0.024 | [6] 0.008 | [7] 0.041 | [8] -0.043 | [9] -0.039 | [10] -0.008 | [11] -0.023 | [12] 0.023 | [13] 0.001 | [14] -0.196 | [15] -0.057 | [16] 0.016 | [17] -0.087 | [19] -0.06 | [18] 0.046 | [20] 0.012

WDR34 (UniProt Q96EX3)
inactive: [1] 0.131 | [3] 0.059 | [4] -0.163 | [6] 0.028 | [7] -0.019 | [8] 0.089 | [9] 0.003 | [10] -0.101 | [11] 0.026 | [12] -0.084 | [13] -0.009 | [14] -0.002 | [15] -0.02 | [16] -0.003 | [17] 0.067 | [19] 0.042 | [20] 0.011

WDR66 (UniProt Q8TBY9)
inactive: [1] 0.15 | [6] -0.307 | [12] 0.135 | [14] -0.016

WDYHV1 (UniProt Q96HA8)
inactive: [1] 0.065 | [2] -0.065 | [4] -0.023 | [5] -0.045 | [6] 0.143 | [9] -0.033 | [10] 0.101 | [12] -0.103 | [13] 0.095 | [14] -0.014 | [15] -0.063 | [16] -0.025 | [17] 0.22 | [19] -0.086 | [18] -0.015 | [20] 0.095

XP32 (UniProt Q5T750)
inactive: [7] 0.145 | [8] -0.224 | [10] 0 | [11] 0.183

VLDLR (UniProt P98155)
inactive: [3] -0.036 | [6] 0.073 | [10] -0.107 | [12] 0.036 | [13] -0.094

WDR54 isoform 4 (UniProt Q9H977)
inactive: [1] 0.018 | [3] -0.094 | [4] 0.168 | [7] 0.104 | [8] 0.197 | [9] -0.11 | [10] 0.03 | [11] 0.033 | [14] -0.071 | [15] -0.019 | [16] 0.08 | [17] 0.109

WDFY2 (UniProt Q96P53)
inactive: [9] 0.013 | [13] 0.076 | [15] 0.1

VTI1B (UniProt Q9UEU0)
inactive: [2] 0.028 | [3] 0.045 | [4] 0.087 | [5] -0.005 | [6] -0.029 | [7] -0.034 | [8] 0.009 | [9] 0.003 | [10] 0.024 | [11] -0.05 | [12] -0.019 | [13] 0.032 | [15] 0.052 | [16] 0.058 | [17] 0.017 | [19] -0.087 | [18] 0.021 | [20] 0.009

WARS1 (UniProt G3V277)
inactive: [1] 0.124 | [3] -0.106 | [4] 0.027 | [14] -0.168 | [16] -0.103 | [17] -0.011

VTA1 (UniProt Q9NP79)
inactive: [1] -0.062 | [2] 0.013 | [3] -0.024 | [4] -0.05 | [5] -0.014 | [6] -0.01 | [7] 0.055 | [8] -0.063 | [9] 0.004 | [10] -0.005 | [11] 0.006 | [12] -0.006 | [13] 0.031 | [14] -0.012 | [15] -0.041 | [16] 0.015 | [17] -0.006 | [19] 0.033 | [18] 0.007 | [20] -0.018

XAGE1A (UniProt Q9HD64)
inactive: [1] -0.007 | [3] -0.057 | [4] -0.159 | [14] 0.251 | [16] 0.154 | [17] 0.004 | [19] -0.14 | [20] -0.039

WDR83 (UniProt Q9BRX9)
inactive: [1] -0.126 | [2] 0.015 | [3] 0.104 | [5] 0.176 | [6] 0.107 | [9] 0.042 | [12] -0.009 | [14] -0.05 | [15] -0.065 | [19] -0.089 | [18] -0.091 | [20] -0.004

WWOX (UniProt Q9NZC7)
inactive: [1] 0.023 | [6] 0.132 | [7] 0.281 | [8] -0.234 | [9] 0.012 | [10] 0.104 | [11] 0.159 | [12] 0.056 | [14] -0.148 | [15] -0.081

Copied from the entries so far (two entries):
VTA1 (UniProt Q9NP79)
inactive: [1] -0.062 | [2] 0.013 | [3] -0.024 | [4] -0.05 | [5] -0.014 | [6] -0.01 | [7] 0.055 | [8] -0.063 | [9] 0.004 | [10] -0.005 | [11] 0.006 | [12] -0.006 | [13] 0.031 | [14] -0.012 | [15] -0.041 | [16] 0.015 | [17] -0.006 | [19] 0.033 | [18] 0.007 | [20] -0.018

XAGE1A (UniProt Q9HD64)
inactive: [1] -0.007 | [3] -0.057 | [4] -0.159 | [14] 0.251 | [16] 0.154 | [17] 0.004 | [19] -0.14 | [20] -0.039

(cont.)

WARS1 (UniProt G3V5U1)
inactive: [2] 0.001 | [3] 0.501 | [4] -0.609 | [5] -0.034 | [16] 0.017 | [17] 0.158 | [19] -0.164 | [18] -0.032 | [20] 0.172

XBP1 isoform 2 (UniProt P17861)
inactive: [6] 0.127 | [12] -0.513 | [13] 0.112

— the supplement of paper PMC10849652
